# About 7,700 (2.3%) of roughly 330,000 compounds were called active. The inconclusive results got no clear call from the source; some entries with a clear call stand among them for comparison. The call rests on the fitted dose curve; in most records, active means well fitted inhibition curve with a large enough effect; inconclusive means small, poorly fitted or top-dose-only effect, or effect the other way; inactive means flat fitted curve, though single readings scatter. Where the call is inconclusive, the potency comes from a doubtful curve fit.
# Assay: qHTS screen for small molecules that inhibit ELG1-dependent DNA repair in human embryonic kidney (HEK293T) cells expressing luciferase-tagged ELG1; further: nearly all actives have a fitted effect of over 55% in size
# Details: HEK293T ELG1-luciferase reporter, luminescence, 16 h, DNA damage induced by 5-fluorouridine; series mostly up to 46.1 µM
# Outline: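 Quantitative HTS, concentration-response format. 2,000 cells/well co-treated with 5-fluorouridine and compound, 16 hr in 5% CO2 at 37 °C; ONE-Glo luminescence read after 30 min.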
# Potency means the concentration at half of the fitted maximal effect.
row,Compound,Potency
1,COC(=O)c1ccc(Oc2nc(Nc3ccccc3)nc(N(C)C)n2)cc1,"inconclusive: 20.6 µM [inhibitor, partial curve, poor fit]"
2,CC(=O)Nc1cc2c(ccc3ccccc32)oc1=O,"inconclusive: 8.2 µM [activator, partial curve]"
3,Cc1ccc(OCC(=O)N(C)C2CCCCC2)c([N+](=O)[O-])n1,inactive
4,Cc1ccc(S(=O)(=O)N(C)CC(=O)NCCc2c[nH]c3ccccc23)cc1,active: 14.6 µM
5,COc1ccc(-c2csc3ncnc(NCCN4CCOCC4)c23)cc1,active: 13 µM
6,COc1ccc(C(CNC(=O)c2oc3cc(Br)ccc3c2C)N2CCCCC2)cc1 (centres undefined),inactive
7,C/C(=N\Nc1ccccc1)c1c(O)cc(C)oc1=O,"inconclusive: 20.6 µM [inhibitor, partial curve]"
8,O=C(N/N=C/c1cc(Cl)c(O)c(Cl)c1)c1cc2c(ccc3ccccc32)o1,inactive
9,ClCc1nc2ccccc2c2ccccc12,"inconclusive: 29.1 µM [inhibitor, single point]"
10,CC(=O)c1ccc(N(C)C)c2c(N(C)C)cccc12,"inconclusive: 2.91 µM [activator, full curve, poor fit]"
11,COc1ccc(Cl)cc1NC(=O)COC(=O)/C=C/c1c(C)nn(C2CCS(=O)(=O)C2)c1Cl (centres undefined),active: 13 µM
12,CCc1ccc(C(=O)NCc2cnn(C)c2)s1,"inconclusive: 13 µM [activator, partial curve]"
13,NC(=O)c1ccc(NC(=O)C2CCCC2)cc1,"inconclusive: 16.4 µM [activator, partial curve]"
14,Brc1ccc(-c2nn3c(-c4ccccn4)nnc3s2)o1,inactive
15,O=C(CCc1nnc(C2CCCCC2)o1)N1CCN(Cc2ccccc2)CC1,inactive
16,C=CCNC(=S)N1CCC(C(=O)c2ccc(Cl)cc2)CC1,"inconclusive: 35.5 µM [inhibitor, single point]"
17,CC(C)c1ccccc1NC(=S)NCCCn1ccnc1,inactive
18,Cc1nc(N2CCN(S(=O)(=O)c3ccc(F)cc3)CC2)c2c(-c3cccs3)csc2n1,"inconclusive: 18.3 µM [inhibitor, single point]"
19,O=C(CSc1ccccc1)NN1C(=O)c2ccccc2C1=O,inactive
20,O=C(CCCCCn1c(=S)[nH]c2ccc(N3CCOCC3)cc2c1=O)NC1CCN(Cc2ccccc2)CC1,"inconclusive: 16.4 µM [inhibitor, single point]"
21,N=C1CCCN1c1ccccc1O,"inconclusive: 23.1 µM [activator, partial curve]"
22,COc1ccc(S(=O)(=O)N(CC(=O)Nc2ccc(S(=O)(=O)N3CCOCC3)cc2)c2ccccc2)cc1,"inconclusive: 20.6 µM [inhibitor, partial curve, poor fit]"
23,CCN(CC)S(=O)(=O)c1ccc(/C=C/C(=O)OCC(=O)NC(=O)C2COc3ccccc3O2)cc1 (centres undefined),"inconclusive: 23.1 µM [activator, single point]"
24,COc1ccccc1C(=O)O/N=C(\N)c1ccc(Cl)cc1,"inconclusive: 16.4 µM [activator, partial curve]"
25,O=C(Oc1ccc2c(c1)O/C(=C\c1ccncc1)C2=O)c1ccccc1,"inconclusive: 29.1 µM [activator, single point]"

# Retrieved one by one from above, six records:
row,Compound,Potency
2,CC(=O)Nc1cc2c(ccc3ccccc32)oc1=O,"inconclusive: 8.2 µM [activator, partial curve]"
1,COC(=O)c1ccc(Oc2nc(Nc3ccccc3)nc(N(C)C)n2)cc1,"inconclusive: 20.6 µM [inhibitor, partial curve, poor fit]"
20,O=C(CCCCCn1c(=S)[nH]c2ccc(N3CCOCC3)cc2c1=O)NC1CCN(Cc2ccccc2)CC1,"inconclusive: 16.4 µM [inhibitor, single point]"
15,O=C(CCc1nnc(C2CCCCC2)o1)N1CCN(Cc2ccccc2)CC1,inactive
3,Cc1ccc(OCC(=O)N(C)C2CCCCC2)c([N+](=O)[O-])n1,inactive
9,ClCc1nc2ccccc2c2ccccc12,"inconclusive: 29.1 µM [inhibitor, single point]"

# Next structures follow:

row,Compound,Potency
1,Cc1cccc(OCCn2c(=S)[nH]c3ccccc32)c1,inactive
2,CCCn1cnnc1CNC(=O)C1CCC(=O)N(CCc2ccc(OC)cc2)C1 (centres undefined),"inconclusive: 29.1 µM [activator, partial curve, poor fit]"
3,CCOCCCn1c(=N)c(C(=O)NCc2ccc3c(c2)OCO3)cc2c(=O)n3cccc(C)c3nc21,"inconclusive: 1.58 µM [inhibitor, partial curve, poor fit]"
4,COc1ccccc1Nc1nnc(SCC(=O)Nc2nc(-c3ccc(F)cc3)cs2)s1,"inconclusive: 25.9 µM [activator, partial curve, poor fit]"
5,CC(C)n1cnc2c(N(C)c3cccc(Cl)c3)nc(N(CCO)CCO)nc21,"inconclusive: 6.51 µM [inhibitor, full curve, poor fit]"
6,CC(C)CCn1c(=O)c2ccccc2n2c(CCl)nnc12,"inconclusive: 29.1 µM [activator, single point]"
7,Cc1cc(C)c(C)c(S(=O)(=O)N2CCC(C(=O)OCC(=O)NC3CCS(=O)(=O)C3)CC2)c1C (centres undefined),inactive
8,CCOC(=O)/C(C#N)=C\c1ccc(CC)s1,"inconclusive: 10 µM [activator, partial curve, poor fit]"
9,COc1cc(/C=N/N2CCOCC2)ccc1OCc1ccccc1,inactive
10,Cc1cccc(OCC(=O)NCC(=O)N/N=C/c2cc(Br)ccc2OCc2ccccc2)c1,active: 25.9 µM
11,CN(C(=S)NC(=O)c1ccc(F)cc1)C1CCCCC1,"inconclusive: 18.3 µM [activator, partial curve, poor fit]"
12,Cc1ccccc1Nc1nc(N2CCOCC2)nc(N2CCOCC2)n1,"inconclusive: 9.2 µM [inhibitor, partial curve]"
13,COc1ccccc1C(CNC(=O)C1CCN(C(=O)Nc2ccccc2)CC1)N1CCCC1 (centres undefined),"inconclusive: 5.17 µM [activator, single point]"
14,COc1ccc(CN(C)C(=S)Nc2ccc(Cl)cc2)cc1,"inconclusive: 32.6 µM [inhibitor, single point]"
15,Cc1ccc(S(=O)(=O)/N=C(/Nc2nc(C)cs2)c2ccccc2)cc1,inactive
16,O=C(COc1ccc2c3c(c(=O)oc2c1)CCCC3)N1CCN(c2ccc(F)cc2)CC1,inactive
17,Cc1cc(NC(=O)c2ccc(F)cc2)n(C)n1,"inconclusive: 29.1 µM [activator, partial curve, poor fit]"
18,CCc1ccc(/C=C(\C#N)C(=O)NC2CCS(=O)(=O)C2)cc1 (centres undefined),inactive
19,COc1ccccc1/C=N/NC(=O)c1ccc(CN2C(=O)c3cccc4cccc2c34)cc1,inactive
20,Cc1cc(C)nc(N/N=C/c2ccccc2OCc2ccccc2)n1,"inconclusive: 23.1 µM [inhibitor, single point]"
21,c1ccc(-c2cc(N3CCCCC3)ncn2)cc1,"inconclusive: 18.4 µM [activator, partial curve]"
22,CNC(=O)c1cc2ccc(OC)cc2oc1=O,"inconclusive: 35.5 µM [activator, single point]"
23,COc1cccc(C(=O)Nc2ccc3nc(N4CCOCC4)cc(C)c3c2)c1,"inconclusive: 23.1 µM [inhibitor, partial curve]"
24,CSc1ccc(NC(=O)c2cccnc2)cc1C#N,"inconclusive: 16.4 µM [activator, partial curve]"
25,CCCC(=O)Nc1ccc(C(=O)NCCc2ccc(F)cc2)cc1,"inconclusive: 16.4 µM [activator, single point]"

row,Compound,Potency
1,Cc1cnc(C(=O)OCC(=O)NCc2cccc(Cl)c2)cn1,inactive
2,O=C(c1ccco1)N1CCN(Cc2nnc(-c3cccc(Br)c3)o2)CC1,inactive
3,CCOC(=O)CN1C(=O)C(C)(C)Oc2ccc(C(=O)Nc3ccccc3OC)cc21,active: 18.4 µM
4,COc1ccc(NC(=O)CSc2nnc(C3CCCCC3)n2-c2ccccc2)cc1,inactive
5,Cn1cccc1C(=O)OCc1ccc(C(C)(C)C)cc1,"inconclusive: 20.6 µM [activator, partial curve]"
6,COc1ccc(CN2CCN(C)CC2)cc1OCc1ccccc1,inactive
7,Cn1nc(C(C)(C)C)cc1C(=O)NNC(=O)c1ccccc1Cl,"inconclusive: 23.1 µM [inhibitor, partial curve, poor fit]"
8,C/C(=N\Nc1cc(C)nc(-c2ccccc2)n1)c1cccc([N+](=O)[O-])c1,active: 14.6 µM
9,CC(C)Nc1nc(NC(N)=S)nc(NC(C)C)n1,"inconclusive: 20.6 µM [activator, single point]"
10,CC1CC(C)CN(CCCNS(=O)(=O)c2cc(Br)cc3c2N(C(=O)C2CC2)CC3)C1 (centres undefined),inactive
11,COc1ccc(/C=C/C(=O)N2c3ccccc3Sc3ccc(C(F)(F)F)cc32)cc1,"inconclusive: 20.6 µM [inhibitor, single point]"
12,O=C(CCl)NN=C(c1ccccc1)c1ccccc1,inactive
13,Cc1ccc(O)c(NC(=O)c2cc(-c3ccco3)on2)c1,"inconclusive: 11.6 µM [activator, partial curve]"
14,Cc1ccc(C(=O)N/N=C\c2ccc[nH]2)cn1,"inconclusive: 18.4 µM [activator, single point]"
15,O=C(Nc1ccc(Cl)c(Cl)c1)Nc1nnc(CC2=CCCCC2)s1,"inconclusive: 5.8 µM [inhibitor, single point]"
16,O=C(CCCC(=O)OCC(=O)c1cccs1)Nc1ccc(F)cc1,inactive
17,COc1cc(/C=N/n2c(-c3cc(C)[nH]n3)n[nH]c2=S)ccc1O,"inconclusive: 20.6 µM [activator, single point]"
18,CC1=C(C(=O)OC(C)C)C(C2CC=CCC2)NC(=O)N1 (centres undefined),inactive
19,O=C(NNC(=O)c1ccc(F)c(S(=O)(=O)N2CCOCC2)c1)c1ccc(Br)cc1,"inconclusive: 0.231 µM [inhibitor, single point]"
20,CC(=O)c1c(C)[nH]c2ccccc2c1=O,inactive
21,O=C(CCN1C(=O)C2C3CCC(C3)C2C1=O)Nc1ccc(F)cc1 (centres undefined),"inconclusive: 23.1 µM [activator, partial curve]"
22,COc1cccc(CC(=O)NN2C(=O)NC3(CCCCC3)C2=O)c1,inactive
23,COc1ccc(CCNCC(=O)Nc2ccc(C)c(Br)c2)cc1OC,inactive
24,CCOC(=O)c1ccc2ncc(C(=O)OCC)c(NCCCN3CCOCC3)c2c1,"inconclusive: 12.6 µM [inhibitor, partial curve]"

# Reference: PubChem BioAssay AID504467 (National Center for Advancing Translational Sciences (NCATS), 2011)
